Experimental data taken from paper PMC5996148.
The other results are listed elsewhere or left out. For some of these results: The source does not settle which construct or isoform was used.

By UniProt entry, the sequences of proteins in these tests, tags left out.
UniProt P05067, whole entry: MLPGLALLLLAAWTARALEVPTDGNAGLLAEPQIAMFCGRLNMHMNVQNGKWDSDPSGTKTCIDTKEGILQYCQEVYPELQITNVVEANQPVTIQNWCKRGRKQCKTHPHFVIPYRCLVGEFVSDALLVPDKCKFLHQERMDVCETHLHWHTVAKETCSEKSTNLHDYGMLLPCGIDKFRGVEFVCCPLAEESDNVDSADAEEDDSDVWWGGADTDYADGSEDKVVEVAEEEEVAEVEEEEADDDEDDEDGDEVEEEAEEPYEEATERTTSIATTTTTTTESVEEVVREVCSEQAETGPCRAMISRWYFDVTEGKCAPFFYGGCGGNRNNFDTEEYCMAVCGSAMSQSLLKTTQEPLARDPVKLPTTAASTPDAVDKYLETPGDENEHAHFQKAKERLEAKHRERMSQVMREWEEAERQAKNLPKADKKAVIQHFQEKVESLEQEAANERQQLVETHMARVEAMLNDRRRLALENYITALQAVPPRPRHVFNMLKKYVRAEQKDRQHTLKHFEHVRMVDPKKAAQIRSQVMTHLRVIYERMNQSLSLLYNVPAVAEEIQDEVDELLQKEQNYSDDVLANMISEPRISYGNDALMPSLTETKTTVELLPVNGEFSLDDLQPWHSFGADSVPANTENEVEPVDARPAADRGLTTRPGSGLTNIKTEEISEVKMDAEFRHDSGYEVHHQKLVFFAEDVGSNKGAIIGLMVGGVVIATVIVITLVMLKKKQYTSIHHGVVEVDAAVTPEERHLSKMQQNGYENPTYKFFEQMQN

Experiments:
Experiment in all cases: protein microarray (ProtoArray v5.0), streptavidin-Alexa Fluor 647
Conditions in all cases: 3'-biotin; 20 mM Tris (pH 7.5), 5 mM MgCl2, 100 mM KCl, 0.1% Tween-20, A/T-rich and random oligonucleotide blockers; temperature not stated; high values mean tight binding
APOM (human) = system: APOM (human)
APP = APP (UniProt P05067)
APPL2 (human) = system: APPL2 (human)
AQP5 (human) = system: AQP5 (human)
AQP8 = target: T1, AQP8 (UniProt O94778)
T1 sequence: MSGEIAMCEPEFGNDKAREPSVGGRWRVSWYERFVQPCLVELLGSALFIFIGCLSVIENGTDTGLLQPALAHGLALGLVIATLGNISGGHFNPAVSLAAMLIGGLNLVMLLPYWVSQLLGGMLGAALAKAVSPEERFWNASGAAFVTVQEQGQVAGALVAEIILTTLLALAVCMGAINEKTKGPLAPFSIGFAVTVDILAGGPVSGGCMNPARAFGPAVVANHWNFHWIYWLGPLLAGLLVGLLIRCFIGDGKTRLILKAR

ARF4 (human) = system: ARF4 (human)
ARF5 (human) = system: ARF5 (human)
ARFIP2 (human) = system: ARFIP2 (human)
ARHGAP24 (human) = system: ARHGAP24 (human)
ARHGAP28 (human) = system: ARHGAP28 (human)

Work on “GGGAGGCTGAGGCAGG [G4-1 biotinylated (PQS2)]” yielded a binding signal (APOM (human)) of -0.316 z-score, a binding signal (APP) of -0.327 z-score and a binding signal (APPL2 (human)) of -0.307 z-score. For the same sequence, the binding signal (AQP5 (human)) was -0.347 z-score, the binding signal (AQP8) was -0.35 z-score and the binding signal (ARF4 (human)) was -0.344 z-score. For the same sequence, the binding signal (ARF5 (human)) was -0.345 z-score, the binding signal (ARFIP2 (human)) was -0.358 z-score and the binding signal (ARHGAP24 (human)) was -0.281 z-score. For the same sequence, the binding signal (ARHGAP28 (human)) was -0.326 z-score.
